The target of the assay is T1, Human TREM2 R47H (human, UniProt Q9NZC2 19-174, limits assumed).
T1 construct: also called human R47H TREM mutant; R47H TREM
T1 sequence (looked up): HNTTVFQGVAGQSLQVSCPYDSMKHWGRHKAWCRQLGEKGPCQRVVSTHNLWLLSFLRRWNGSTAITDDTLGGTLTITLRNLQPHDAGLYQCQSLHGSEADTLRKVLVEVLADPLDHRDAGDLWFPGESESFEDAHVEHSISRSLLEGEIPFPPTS
As to the kind of experiment: SPR (Biacore), 25 C. (SPR reads the build-up and loss of mass on a sensor chip optically.)

Results are given in words; binding and its absence hold for the method and conditions named. Some results given as binding are weak or reduced against the parent protein; the word gives no strength.

B1: TREM2 Antibody 1 (antibody, human IgG4 S228P, kappa, F234A L235A, V domains shown)
VH: EVQLVQSGAEVKKPGESLKISCKGSGFSFNTYWIGWVRQMPGKGLEWMGIIYPGDQDIRYSPSFQGQVTISADKSISTAYLQWSSLKASDTAMYYCARYGRYIYGYGGYHGMDVWGQGTTVTVSS
VL: DIQMTQSPSSLSASVGDRVTITCRASQAIRDDLGWYQQKPGKAPKLLIYAASSLQSGVPSRFSGSGSGTDFTLTISSLQPEDFATYYCLQNYNYPHTFGQGTKLEIKR
notes: Human antibody with a kappa light chain
For the molecule B1, the binding result is listed as “binds”.
